# Percent effect of library compounds

The values are deposited in ChEMBL (CHEMBL3988442, “University of Dundee, Small-Polar-MMV Screening Library” (2021)).

Each number is a percent effect as filed.
How 0% and 100% were set is not recorded. Most values in the screen are low, and negative values occur.
Compounds were drawn at random from those tested, without regard to their results.
Two or more numbers in one place are separate tests of the same structure; such repeats can differ widely.

A: 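Phenotypic screen: M. tuberculosis growth, glucose 7H9 medium, 3 days; the read-out is not stated. Compounds at 50 µM. Direction is inferred from retests: higher values go with more growth inhibition. About 69,000 compounds were tested under these conditions; 1.1% (about 760) showed 50% or more at least once.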
B: 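Phenotypic screen: M. tuberculosis growth, cholesterol and DPPC medium, 4 days; the read-out is not stated. Tested at 50 µM. Direction is inferred from retests: higher values go with more growth inhibition. Size under these conditions: about 69,000 compounds, about 370 of them at 50% or above in at least one test.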

SMILES: CCN(CC)CC1CCN(Cc2ccn(C)c(=O)c2)CC1
A: -12.68
B: -0.761

SMILES: CC(C)(C)OC(=O)N1CCN(C(=O)c2sccc2C2CC2)CC1
A: 28.06
B: 8.029

SMILES: CC(NC(=O)N1CCNC(=O)CC1)c1c(F)cccc1Cl (stereo unspecified)
A: -0.7005 & 1.191
B: -3.297

SMILES: CC1CC(=O)c2cc(C(=O)N3CCc4ccccc43)c(=O)[nH]c2C1 (stereo unspecified)
A: -2.01
B: -2.121

SMILES: COCCN1CCC(CN(Cc2ccncc2)C2CCC2)CC1
A: -2.841
B: -4.976

SMILES: Cc1cc(C(=O)N2CCCC3(C=Cc4ccccc4O3)CC2)cc(=O)[nH]1 (stereo unspecified)
A: 2.475
B: -2.178 & -4.413

SMILES: Cc1noc(C)c1CCC(=O)N1CCCN(Cc2cscn2)CC1
A: -26.47
B: -17.69

SMILES: CCC(CN1CCCC1)NC(=O)C1(c2ccc(F)cc2)CC1 (stereo unspecified)
A: -17.58
B: 5.715 & 1.304

SMILES: O=C(NCc1nn(-c2ccccc2)c2c1CCC2)NC1CCOCC1
A: -4.543
B: 3.879

SMILES: CCn1ccnc1S(=O)(=O)Cc1ccc(C(N)=O)cc1
A: 7.456
B: -14.8

SMILES: O=C1OCCN1Cc1cccc(F)c1C(F)(F)F
A: -4.87
B: -3.742

SMILES: COc1cccc(S(=O)(=O)CCN2CCn3c(C)nnc3C2)c1
A: 4.686
B: -13.2

SMILES: Cc1cc(N2CCCC2c2nc(C)cc(CCC(=O)O)n2)ncn1 (stereo unspecified)
A: 6.945
B: 5.195

SMILES: CC(C)N(CC(N)=O)C(=O)c1cnc(-c2ccc3c(c2)OCO3)s1
A: 22.06
B: -0.834

SMILES: CCOc1ccc(Cl)c(C(=O)NCc2ccc(C(=O)NC)cc2)n1
A: -1.932
B: 4.746

SMILES: Cc1nc(CNC(=O)NCC(F)(F)F)oc1C
A: 4.568
B: 2.474

SMILES: Cc1ccc(CN(Cc2nc3c(cnn3C)c(=O)[nH]2)C(C)C)s1
A: -16.77
B: -8.517

SMILES: COc1ccc(N2CCN(C(=O)Cn3nccc3C)CC2(C)C)cc1
A: 9.416
B: 13.09 & -2.171

SMILES: O=C(O)C(F)(F)F.[H][C@]12CCN(c3ncccn3)[C@@]1([H])C[C@@H](C(=O)Nc1nc(C)cs1)O2
A: -18.51
B: -20.34

SMILES: c1cnn(CCNCc2nnc(C3CC3)o2)c1
A: 13.74
B: -1.1

SMILES: CN1CCC/C1=N\S(=O)(=O)c1ccc(NC(=O)c2ccc(Cl)cc2)cc1
A: 11.44
B: 1.808

SMILES: CCCS(=O)(=O)NC1CCN(c2nnc(C)c(C)c2C#N)CC1
A: 13.83
B: 11.06

SMILES: CCNc1ncc(C(=O)N[C@H]2CC[C@H](n3cnnc3)CC2)cn1
A: 16.61
B: -12.5

SMILES: Cc1cc(C)c(CNc2cnn(CC(O)CN(C)C)c2)c(C)c1 (stereo unspecified)
A: 21.9
B: -6.444

SMILES: N#Cc1ccccc1CN1CCC(CN2CCOCC2)C1 (stereo unspecified)
A: 14.09
B: -0.3305

SMILES: CN(C)CC(NC(=O)c1ccn(C)c(=O)c1)c1ccccc1 (stereo unspecified)
A: -12.05
B: -2.244

SMILES: CCC(=O)NCC(=O)NC(C)c1ccc(OCCC(C)C)cc1 (stereo unspecified)
A: 40.16
B: 45.76

SMILES: Cn1ccnc1SCCNC1CCN(c2ncccn2)CC1
A: 10.12
B: -4.98

SMILES: COC(=O)c1cccn1C1CCN(Cc2cnc3ccccn23)CC1
A: 8.183
B: 1.971

SMILES: Cc1occc1C(=O)NCCOc1ccc(C(F)(F)F)cn1
A: 4.563
B: -5.938

SMILES: CO[C@H]1CO[C@@]2(CCCN(C(=O)C3=CCCCC3)C2)C1
A: 32.93
B: 32.39

SMILES: CN(Cc1cn2c(n1)CN(C(=O)c1ccc[nH]1)CC2)Cc1ccco1.O=C(O)C(F)(F)F
A: -7.032 & 10.26
B: -9.646 & -14.71

SMILES: [H][C@@]12CS(=O)(=O)C[C@]1([H])N(Cc1ccc3occc3c1)CCN2C(=O)N(C)C
A: -16.55
B: -23.62

SMILES: CCSc1ncc(CN2CCC(O)(CN3CCOCC3)C(C)(C)C2)cn1 (stereo unspecified)
A: 15.92
B: -24.94

SMILES: Cc1cn2c(n1)C(CNCC1=Cc3ccccc3OC1)CCC2 (stereo unspecified)
A: 39.42
B: 27.44

SMILES: [H][C@@]12CCN(S(=O)(=O)CC)C[C@]1(C(=O)NC)CCO2
A: 10.54
B: -8.855 & 0.1623

SMILES: CCOc1ccnc(N[C@@H](Cc2ccccc2)C(N)=O)n1
A: 12.24
B: -1.984 & 77.23